According to paper PMC10770133:

Target: SIRT3
Assay: co-IP; SIRT3 with PDHA1 and with CPT2; details only in Supplementary Fig. S7a, b

binding: binds
B1: ectopically expressed CPT2 (enzyme, UniProt P23786 26-658)
chain: SAGSGPGQYLQRSIVPTMHYQDSLPRLPIPKLEDTIRRYLSAQKPLLNDGQFRKTEQFCKSFENGIGKELHEQLVALDKQNKHTSYISGPWFDMYLSARDSVVLNFNPFMAFNPDPKSEYNDQLTRATNMTVSAIRFLKTLRAGLLEPEVFHLNPAKSDTITFKRLIRFVPSSLSWYGAYLVNAYPLDMSQYFRLFNSTRLPKPSRDELFTDDKARHLLVLRKGNFYIFDVLDQDGNIVSPSEIQAHLKYILSDSSPAPEFPLAYLTSENRDIWAELRQKLMSSGNEESLRKVDSAVFCLCLDDFPIKDLVHLSHNMLHGDGTNRWFDKSFNLIIAKDGSTAVHFEHSWGDGVAVLRFFNEVFKDSTQTPAVTPQSQPATTDSTVTVQKLNFELTDALKTGITAAKEKFDATMKTLTIDCVQFQRGGKEFLKKQKLSPDAVAQLAFQMAFLRQYGQTVATYESCSTAAFKHGRTETIRPASVYTKRCSEAFVREPSRHSAGELQQMMVECSKYHGQLTKEAAMGQGFDRHLFALRHLAAAKGIILPELYLDPAYGQINHNVLSTSTLSSPAVNLGGFAPVVSDGFGVGYAVHDNWIGCNVSSYPGRNAREFLQCVEKALEDMFDALEGKSIKS

Results are given in words; binding and its absence hold for the method and conditions named. In cells and extracts the contact can be indirect. Binding calls can cover weak binding; strength is not graded here.
